In patent publication US8034787B2 (Medarex, Inc., priority 1998, dated 2011):
“And” between values parts separate entries of the source, which are not always exact repeats. Equal values may be shown once. For part of these data: Some peptides are written in HELM: one residue between dots, names in brackets for other building blocks, links after the first $. * marks the point of attachment. MeOSuc = COC(=O)CCC(=O)*; βAla = NCCC(=O)O

Legend:
[1] = general procedure: Fmoc solid-phase peptide synthesis; Wang's alkoxy resin (0.60 mmol/gm loading); HBTU/DIEA (SPPS); HATU or HBTU/DIEA for drug coupling
[2] = general procedure: Fmoc solid-phase peptide synthesis; Wang's alkoxy resin; HBTU/DIEA (SPPS); HATU or HBTU/DIEA for drug coupling; settings: whole synthesis, method A, sodium salt; lactate salt
[3] = conjugation step, Method B, sodium salt, lactate salt
[4] = conjugation step, physical yield, sodium salt, lactate salt
[5] = late stage modification step, method B, sodium salt, lactate salt
[6] = late stage modification step, sodium salt
[7] = late stage modification step, HPLC (methods A, B, D), sodium salt, lactate salt
[8] = late stage modification step, sodium salt, lactate salt
[9] = conjugation step, sodium salt, lactate salt
[10] = conjugation step, method A, sodium salt, lactate salt

Substance: Fmoc-βAla-Leu-Ala-Leu-Dox
- crude HPLC purity [1, 3]: 90.23%
- conjugation yield [1, 4]: 89.7%

Substance: PEPTIDE1{[Suc].[bAla].L.A.L.[Dox]}$$$$V2.0
- crude HPLC purity ([1]; late stage modification step, 254 nm, method B, sodium salt, lactate salt): 93.43% (254 nm)
- crude HPLC purity ([1]; late stage modification step, 480 nm, method B, sodium salt, lactate salt): 94.43% (480 nm)
- crude HPLC purity ([1]; late stage modification step, HPLC (methods A, B, D), sodium salt): 84.5%
- crude HPLC purity ([1]; late stage modification step, HPLC (methods A, B, D), sodium salt, lactate salt, run 1): 89.13% and 88.2%
- crude HPLC purity ([1]; late stage modification step, Method B, sodium salt): 89.06%
- crude HPLC purity ([1]; late stage modification step, Method D, sodium salt, lactate salt): 91%
- crude HPLC purity ([1]; late stage modification step, method B, sodium salt): 84%
- crude HPLC purity [1, 5]: 80.2%
- step yield ([1]; late stage modification step, physical yield, Na salt): 87%
- step yield ([1]; late stage modification step, physical yield, sodium salt, lactate salt, run 1): 81%
- step yield ([1]; late stage modification step, physical yield, sodium salt, lactate salt, run 2): 98.34%
- step yield ([1]; late stage modification step, physical yield, sodium salt, run 1): 99%
- step yield ([1]; late stage modification step, physical yield, sodium salt, run 2): 66.1%
- step yield [1, 6]: about 100%
- step yield ([1]; late stage modification step, sodium salt, lactate salt, run 1): 97%
- step yield ([1]; late stage modification step, sodium salt, lactate salt, run 2): 89%

Substance: MeOSuc-βAla-Leu-Ala-Leu benzyl ester
- final purity (method not given) [1, 7]: 80%
- step yield [1, 8]: 60%

Substance: βAla-Leu-Ala-Leu benzyl ester
- crude purity (method not given) [1, 7]: 67%

Substance: {MeOSuc-βAla}-Leu-Ala-Leu-OH
- step yield [1, 8]: 78%

Substance: PEPTIDE1{[Gl].[bAla].L.A.L.[Dox]}$$$$V2.0
- crude HPLC purity ([1]; late stage modification step, method D, sodium salt): 87%
- step yield [1, 6]: 97%

Substance: PEPTIDE1{[bAla].L.A.L.[Dox]}$$$$V2.0
- step yield ([1]; late stage modification step, lactate salt): 67%
- final HPLC purity ([1]; late stage modification step, method B, lactate salt): 89%

Substance: Fmoc-βAla-Leu-Ala-Leu benzyl ester
- crude HPLC purity [1, 7]: 95%
- step yield [1, 8]: 87%

Substance: Allyl-Succinyl-βAla-Leu-Ala-Leu-Dox
- crude HPLC purity [1, 3]: 90%

Substance: Fmoc form of Thi-Tyr-Gly-Leu
- crude HPLC purity [2]: 88%

Substance: N-cap succinyl form of Thi-Tyr-Gly-Leu-Dnr
- crude HPLC purity ([1]; late stage modification step, method A, sodium salt, lactate salt): 81%
- step yield [1, 8]: 80%

Substance: MeOSuc-βAla-Leu-Ala-Leu-Dox
- crude purity (method not given) ([1]; conjugation step, HPLC (methods A, B, D), sodium salt, lactate salt): 96%
- crude HPLC purity [1, 3]: 93.45%
- conjugation yield [1, 4]: 104.47%
- conjugation yield [1, 9]: 98%
- final HPLC purity ([1]; purification step, HPLC (methods A, B, D), sodium salt, lactate salt): 96.5%
- step yield ([1]; purification step, sodium salt, lactate salt): 86%

Substance: N-cap succinyl form of βAla-Leu-Ala-Leu-Dnr
- crude HPLC purity [1, 5]: 88%
- step yield [1, 8]: 80%

Substance: Fmoc form of βAla-Leu-Ala-Leu-Dnr
- crude HPLC purity [1, 10]: 95%
- conjugation yield [1, 9]: 94%

Substance: Fmoc form of Thi-Tyr-Gly-Leu-Dnr
- crude HPLC purity [1, 10]: 91%
- conjugation yield [1, 9]: 94%

Substance: Fmoc form of βAla-Leu-Ala-Leu
- crude HPLC purity [2]: 94%
